Assay results taken from the supplement of paper PMC10849652.
The other results are listed elsewhere or left out.

Sequences of proteins named here, by UniProt entry; tags and fusion partners are left off. A change or cut given only in a name is not applied to a line headed by its entry.
UniProt Q9Y255: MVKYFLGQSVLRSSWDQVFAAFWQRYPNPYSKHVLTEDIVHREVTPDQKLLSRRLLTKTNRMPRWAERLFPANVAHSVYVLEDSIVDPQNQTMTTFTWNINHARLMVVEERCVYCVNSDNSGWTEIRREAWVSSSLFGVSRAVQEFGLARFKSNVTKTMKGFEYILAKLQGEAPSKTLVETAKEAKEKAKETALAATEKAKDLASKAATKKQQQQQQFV
UniProt Q86XN7: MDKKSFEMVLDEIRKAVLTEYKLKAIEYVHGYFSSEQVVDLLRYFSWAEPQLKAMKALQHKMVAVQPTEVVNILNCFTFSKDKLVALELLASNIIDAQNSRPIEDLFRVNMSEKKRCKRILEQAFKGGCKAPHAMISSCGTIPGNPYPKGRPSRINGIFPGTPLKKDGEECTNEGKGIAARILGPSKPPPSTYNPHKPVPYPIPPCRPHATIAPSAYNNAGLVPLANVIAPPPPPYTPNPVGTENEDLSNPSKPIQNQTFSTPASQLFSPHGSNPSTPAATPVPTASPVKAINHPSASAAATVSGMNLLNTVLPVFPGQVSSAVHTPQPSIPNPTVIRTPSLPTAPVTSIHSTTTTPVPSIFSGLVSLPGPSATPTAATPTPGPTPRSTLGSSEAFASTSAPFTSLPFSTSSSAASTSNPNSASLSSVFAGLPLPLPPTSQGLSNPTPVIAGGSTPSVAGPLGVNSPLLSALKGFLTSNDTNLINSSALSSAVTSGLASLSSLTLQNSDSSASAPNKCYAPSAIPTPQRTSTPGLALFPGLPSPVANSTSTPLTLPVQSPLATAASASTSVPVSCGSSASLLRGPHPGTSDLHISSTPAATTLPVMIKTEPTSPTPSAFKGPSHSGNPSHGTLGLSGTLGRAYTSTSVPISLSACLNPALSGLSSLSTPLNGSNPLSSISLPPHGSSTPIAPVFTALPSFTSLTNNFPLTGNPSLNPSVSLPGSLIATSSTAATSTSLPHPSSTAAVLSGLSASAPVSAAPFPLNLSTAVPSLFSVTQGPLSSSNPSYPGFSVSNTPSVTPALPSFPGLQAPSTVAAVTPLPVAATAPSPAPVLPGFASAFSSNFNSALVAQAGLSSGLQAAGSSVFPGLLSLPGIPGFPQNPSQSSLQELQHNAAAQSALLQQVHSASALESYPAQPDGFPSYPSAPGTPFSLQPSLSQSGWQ
UniProt O94906: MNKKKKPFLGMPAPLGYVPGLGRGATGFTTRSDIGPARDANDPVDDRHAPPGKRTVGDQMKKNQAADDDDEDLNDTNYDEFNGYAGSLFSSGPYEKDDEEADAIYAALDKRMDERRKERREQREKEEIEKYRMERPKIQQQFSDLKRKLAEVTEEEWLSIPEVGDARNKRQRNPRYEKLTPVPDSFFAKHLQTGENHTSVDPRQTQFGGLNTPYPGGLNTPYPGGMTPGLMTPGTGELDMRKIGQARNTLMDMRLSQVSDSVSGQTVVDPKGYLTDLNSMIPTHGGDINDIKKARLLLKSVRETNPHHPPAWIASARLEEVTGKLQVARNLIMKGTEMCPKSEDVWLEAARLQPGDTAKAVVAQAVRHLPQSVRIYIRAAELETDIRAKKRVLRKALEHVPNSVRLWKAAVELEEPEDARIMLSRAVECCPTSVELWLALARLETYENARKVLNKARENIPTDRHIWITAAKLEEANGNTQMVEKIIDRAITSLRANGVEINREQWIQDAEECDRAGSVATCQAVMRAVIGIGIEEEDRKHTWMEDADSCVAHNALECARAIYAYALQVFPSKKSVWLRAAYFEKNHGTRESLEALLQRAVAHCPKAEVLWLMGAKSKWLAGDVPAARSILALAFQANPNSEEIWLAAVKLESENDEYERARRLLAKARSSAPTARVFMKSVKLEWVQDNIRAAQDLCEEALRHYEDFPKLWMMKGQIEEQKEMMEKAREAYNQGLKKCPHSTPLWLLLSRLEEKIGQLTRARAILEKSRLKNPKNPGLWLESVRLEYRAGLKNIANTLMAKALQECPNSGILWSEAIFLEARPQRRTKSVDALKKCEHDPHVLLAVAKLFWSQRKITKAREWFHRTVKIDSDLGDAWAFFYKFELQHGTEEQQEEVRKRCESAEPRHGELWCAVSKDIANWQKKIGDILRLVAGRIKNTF
UniProt Q9UGJ0: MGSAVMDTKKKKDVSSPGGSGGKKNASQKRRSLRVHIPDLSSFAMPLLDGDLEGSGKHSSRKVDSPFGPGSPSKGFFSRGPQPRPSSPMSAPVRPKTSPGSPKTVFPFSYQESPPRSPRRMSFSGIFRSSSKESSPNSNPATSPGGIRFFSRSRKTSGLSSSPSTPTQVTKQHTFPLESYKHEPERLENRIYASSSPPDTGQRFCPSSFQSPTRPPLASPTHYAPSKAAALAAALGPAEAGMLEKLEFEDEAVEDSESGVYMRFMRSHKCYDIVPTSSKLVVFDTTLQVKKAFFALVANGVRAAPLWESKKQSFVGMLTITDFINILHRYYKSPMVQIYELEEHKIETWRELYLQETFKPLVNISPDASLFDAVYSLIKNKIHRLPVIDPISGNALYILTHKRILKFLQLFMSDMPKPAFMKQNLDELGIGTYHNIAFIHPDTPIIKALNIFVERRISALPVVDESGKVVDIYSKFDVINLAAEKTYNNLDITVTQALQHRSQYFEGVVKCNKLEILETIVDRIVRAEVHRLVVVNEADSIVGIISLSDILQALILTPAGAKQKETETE
UniProt O75807, whole entry, looked up: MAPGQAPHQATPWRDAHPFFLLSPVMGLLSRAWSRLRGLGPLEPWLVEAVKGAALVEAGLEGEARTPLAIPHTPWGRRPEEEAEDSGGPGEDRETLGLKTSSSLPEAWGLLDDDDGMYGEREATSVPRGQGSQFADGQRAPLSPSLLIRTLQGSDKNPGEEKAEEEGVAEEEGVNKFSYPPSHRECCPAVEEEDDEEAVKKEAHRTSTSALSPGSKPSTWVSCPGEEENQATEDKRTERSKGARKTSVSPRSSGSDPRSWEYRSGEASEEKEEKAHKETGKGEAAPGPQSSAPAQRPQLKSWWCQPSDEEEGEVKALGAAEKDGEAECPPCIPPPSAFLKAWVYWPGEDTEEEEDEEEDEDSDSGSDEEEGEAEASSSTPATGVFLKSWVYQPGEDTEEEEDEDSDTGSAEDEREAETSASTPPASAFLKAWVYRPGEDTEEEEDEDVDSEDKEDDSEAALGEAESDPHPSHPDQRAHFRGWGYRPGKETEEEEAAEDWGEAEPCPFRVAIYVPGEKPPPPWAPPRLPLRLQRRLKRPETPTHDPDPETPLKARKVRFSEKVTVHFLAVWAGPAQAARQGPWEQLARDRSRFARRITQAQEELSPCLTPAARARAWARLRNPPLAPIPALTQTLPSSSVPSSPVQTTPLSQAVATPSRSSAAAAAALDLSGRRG
UniProt P11908: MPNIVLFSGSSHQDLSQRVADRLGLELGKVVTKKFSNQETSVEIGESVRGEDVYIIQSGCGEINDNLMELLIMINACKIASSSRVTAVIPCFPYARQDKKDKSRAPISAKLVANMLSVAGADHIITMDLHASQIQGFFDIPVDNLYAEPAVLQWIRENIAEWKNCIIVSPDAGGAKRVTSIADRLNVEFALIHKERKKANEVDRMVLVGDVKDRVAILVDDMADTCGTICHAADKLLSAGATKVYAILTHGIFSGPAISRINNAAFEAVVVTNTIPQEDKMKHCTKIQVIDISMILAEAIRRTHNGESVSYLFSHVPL
UniProt P60510: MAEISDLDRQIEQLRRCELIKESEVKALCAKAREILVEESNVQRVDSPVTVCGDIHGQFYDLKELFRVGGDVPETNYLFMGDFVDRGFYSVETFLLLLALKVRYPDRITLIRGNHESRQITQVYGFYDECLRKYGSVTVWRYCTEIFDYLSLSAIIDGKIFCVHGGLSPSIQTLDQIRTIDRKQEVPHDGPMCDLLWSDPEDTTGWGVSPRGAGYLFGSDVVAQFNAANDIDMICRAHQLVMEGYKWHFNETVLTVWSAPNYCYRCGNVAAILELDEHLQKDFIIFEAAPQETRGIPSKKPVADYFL

Assays:
Test in all cases: log2 fold change, soluble protein after heating vs DMSO (PISA); higher = thermal stabilisation; K562 cells, 10 uM, 30 min; active = over 0.2 and 3.5 SD of the protein, either way, in both replicates (recomputed)
[1] = compound: CC1=C(C=C(C=C1)NC(=O)C2=CC(=CC=C2)C(C)(C)C#N)NC3=CC4=C(C=C3)N=CN(C4=O)C
Procedure, shortened: (§1)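 Thermal stability values are relative to control samples and come from duplicates. They are expressed as log2 fold changes. For measurement, K562 cells (2×10^6 cells/mL) received 10 μM compound for 30 min, and aliquots were heated for 3 min over 48°C-58°C, pooled, and extracted at 4°C in PBS with 0.5% NP-40. Soluble protein, the supernatant after 21,000xg for 90 min, was quantified by TMTpro 16plex LC-MS/MS with equalised channel sums.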

[2] = compound: CC1=CC=C(C=C1)SC2=C3C=C(SC3=CN=C2)C(=O)N
Procedure, shortened: as §1

[3] = compound: CC1=NC(=CC=C1)C2=C(N=C(N2)C(C)(C)C)C3=CC4=NC=CN=C4C=C3
Procedure, shortened: as §1

Nexturastat A = compound: CCCCN(Cc1ccc(C(=O)NO)cc1)C(=O)Nc1ccccc1 [Nexturastat A]
Procedure, shortened: as §1

vemurafenib = compound: CCCS(=O)(=O)Nc1ccc(F)c(C(=O)c2c[nH]c3ncc(-c4ccc(Cl)cc4)cc23)c1F [vemurafenib]
Procedure, shortened: as §1

[4] = compound: CCCS(=O)(=O)Nc1ccc(F)c(C(=O)c2c[nH]c3ncc(Cl)cc23)c1F
Procedure, shortened: as §1

[5] = compound: CCCc1cc(C)[nH]c(=O)c1CNC(=O)c1cc(-c2ccnc(N3CCN(C)CC3)c2)cc2c1cnn2C(C)C
Procedure, shortened: as §1

givinostat = compound: CCN(CC)Cc1ccc2cc(COC(=O)Nc3ccc(C(=O)NO)cc3)ccc2c1 [givinostat]
Procedure, shortened: as §1

barasertib = compound: CCN(CCCOc1ccc2c(Nc3cc(CC(=O)Nc4cccc(F)c4)[nH]n3)ncnc2c1)CCOP(=O)(O)O [barasertib]
Procedure, shortened: as §1

[6] = compound: CC1=C(C=C(C=C1)NC(=O)C2=CC(=CC=C2)N(C)C)NC(=O)C3=CC=C(C=C3)O
Procedure, shortened: as §1

Measured: log2 fold change

PRELID1 (UniProt Q9Y255)
inactive: [1] 0.011 | [2] -0.034 | [3] -0.253 | Nexturastat A 0.279 | vemurafenib 0.077 | [4] -0.149 | [5] 0.075 | givinostat 0.093 | barasertib -0.12

PROSER1 (UniProt Q86XN7)
inactive: [1] 0.067 | [6] 0.192 | [2] -0.034 | [4] 0.071

PRPF6 (UniProt O94906)
inactive: [1] 0.094 | [6] 0.029 | [3] 0.209 | Nexturastat A 0.011 | givinostat 0.211 | barasertib 0.261

2 records picked at random from those above:
PROSER1 (UniProt Q86XN7)
inactive: [1] 0.067 | [6] 0.192 | [2] -0.034 | [4] 0.071

PRELID1 (UniProt Q9Y255)
inactive: [1] 0.011 | [2] -0.034 | [3] -0.253 | Nexturastat A 0.279 | vemurafenib 0.077 | [4] -0.149 | [5] 0.075 | givinostat 0.093 | barasertib -0.12

Later entries

PRKAG2 (UniProt Q9UGJ0)
inactive: [1] 0.033 | [6] -0.02 | [2] 0.021 | [3] 0.051 | Nexturastat A -0.075 | vemurafenib -0.042 | [4] -0.021 | [5] 0.011 | givinostat 0.009 | barasertib 0.022

PPP1R15A (UniProt O75807)
inactive: [1] -0.534 | [2] -0.16 | [3] 0.061 | Nexturastat A 0.225 | [4] -0.289 | givinostat 0.215

PRG4 (UniProt Q92954)
inactive: [1] -0.099 | [6] 0.034 | [3] 0.106 | Nexturastat A -0.007 | vemurafenib 0.008 | [5] -0.069 | givinostat 0.102 | barasertib -0.023

PRPS2 isoform 2 (UniProt P11908)
inactive: [1] -0.032 | [6] -0.039 | [2] -0.029 | [3] 0.011 | Nexturastat A -0.057 | vemurafenib -0.023 | [4] -0.01 | [5] -0.031 | givinostat 0.004 | barasertib -0.025

PPP4C (UniProt P60510)
inactive: [1] 0.02 | [6] 0.025 | [2] -0.002 | [3] -0.007 | Nexturastat A -0.062 | vemurafenib -0.066 | [4] -0.017 | [5] -0.123 | givinostat 0.024 | barasertib 0.001
